Where a chain is given by its changes, count along the chain named. The exact form of at least one protein or probe is not confirmed. For part of these data: The comparison behind a weaker result is the experiment's own reference, which may not be listed here. For part of these data: At least one verdict rests on a figure or table, not on a statement of the authors. For part of these data: Where a protein sequence is shown, tags need not be part of it.
Key:
[1] = target: T1, HBD-WKK W43A,K59A,K60A (UniProt O60930); assay: fluorescence polarization; conditions: FP: 20 nM oligo, 20 mM HEPES pH 7.0, 100 mM NaCl, 5% glycerol, 20 C; recombinant protein; residues 27-76; protein details: His6-GST-3C cleaved off, AVI-tag; label: 6-FAM at 3' end of fw strand; DNA:RNA hybrid; letters put together from the description
T1 sequence (looked up): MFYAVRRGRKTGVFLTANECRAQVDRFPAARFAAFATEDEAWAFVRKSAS

Chains of the proteins cited; added tags and fusions are not shown. Lines headed by an entry give the natural chain unless they say otherwise; changes in a name come on top. Residues count along the entry.
UniProt O60930, 27-76: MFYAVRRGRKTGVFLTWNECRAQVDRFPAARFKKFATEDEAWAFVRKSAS
UniProt Q9UJV9: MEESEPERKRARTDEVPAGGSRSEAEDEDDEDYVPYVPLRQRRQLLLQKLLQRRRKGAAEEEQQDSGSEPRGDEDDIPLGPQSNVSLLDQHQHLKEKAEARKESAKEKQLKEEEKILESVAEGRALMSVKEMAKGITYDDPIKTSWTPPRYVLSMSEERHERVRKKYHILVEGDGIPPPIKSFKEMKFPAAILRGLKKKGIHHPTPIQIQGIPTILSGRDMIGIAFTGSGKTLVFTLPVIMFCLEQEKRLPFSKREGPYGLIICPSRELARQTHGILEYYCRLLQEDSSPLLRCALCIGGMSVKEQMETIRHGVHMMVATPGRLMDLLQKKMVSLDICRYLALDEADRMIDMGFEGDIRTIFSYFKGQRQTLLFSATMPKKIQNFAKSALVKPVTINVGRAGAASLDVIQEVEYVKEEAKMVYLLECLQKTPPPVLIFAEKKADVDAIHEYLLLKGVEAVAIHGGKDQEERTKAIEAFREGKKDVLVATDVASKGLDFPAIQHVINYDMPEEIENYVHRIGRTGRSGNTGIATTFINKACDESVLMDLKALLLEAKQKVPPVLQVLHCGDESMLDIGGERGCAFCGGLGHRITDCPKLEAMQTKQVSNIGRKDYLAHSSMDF

[2] = target: DDX41 full-length (UniProt Q9UJV9); assay: fluorescence polarization; conditions: FP: 20 nM oligo, 20 mM HEPES pH 7.0, 100 mM NaCl, 5% glycerol, 20 C, recombinant protein, residues 1-622, protein details: N-terminal His6-3C, cleaved off with 3C protease
[3] = target: T2, RNase H1 hybrid-binding domain (HBD) (UniProt O60930); assay: fluorescence polarization; conditions: FP: 20 nM oligo, 20 mM HEPES pH 7.0, 100 mM NaCl, 5% glycerol, 20 C; recombinant protein; residues 27-76; protein details: His6-GST-3C cleaved off, AVI-tag; label: 6-FAM at 3' end of fw strand; DNA:RNA hybrid; letters put together from the description
T2 sequence (looked up): T1 sequence (looked up) with A17W, A33K, A34K

[4] = target: T1, HBD-WKK W43A,K59A,K60A; assay: EMSA; conditions: 25 uM protein; EMSA: 20 nM oligo, 20 mM Tris-Cl pH 7.5, 150 mM NaCl, 10% glycerol, 1 mM EDTA, 1 mM DTT, room temperature; recombinant protein; residues 27-76; protein details: His6-GST-3C cleaved off, AVI-tag; label: 6-FAM at 3' end of fw strand; DNA:RNA hybrid; letters put together from the description
[5] = target: T2, RNase H1 hybrid-binding domain (HBD); assay: EMSA; conditions: 25 uM protein; EMSA: 20 nM oligo, 20 mM Tris-Cl pH 7.5, 150 mM NaCl, 10% glycerol, 1 mM EDTA, 1 mM DTT, room temperature; recombinant protein; residues 27-76; protein details: His6-GST-3C cleaved off, AVI-tag; label: 6-FAM at 3' end of fw strand; DNA:RNA hybrid; letters put together from the description

With “GACACCTGATTC / GAAUCAGGUGUC [RNA-DNA hybrid 12-mer]” the binding result [1] was “binds more weakly”, the Kd ([2]; label: 6-FAM at 3' end of fw strand, DNA:RNA hybrid, letters put together from the description) was 2500 nM and the Kd [3] was 190 nM. “GACACCTGATTC / GAAUCAGGUGUC [RNA-DNA hybrid 12-mer]”: binds more weakly [4]; binds [5].
“GACACCTGATTC (double strand) [dsDNA 12-mer]”: binds more weakly ([2]; label: 6-FAM at 3' end of fw strand).
GACACCTGATTC [ssDNA 12-mer]: binds more weakly ([2]; label: 3' 6-FAM, single-stranded DNA).
GACACCUGAUUC [ssRNA 12-mer]: binds more weakly ([2]; label: 3' 6-FAM, letters put together from the description).
“GACACCUGAUUC / GAAUCAGGUGUC [dsRNA 12-mer]”: binds more weakly ([2]; label: 6-FAM at 3' end of fw strand, letters put together from the description).

From PMC8677849
